Some compounds share one wording; it may come from a single statement.
Experiment: Evaluation of deodorization property (odor scoring by seven examiners)
Details: immediately after production; total score of seven examiners, each 1 to 10 points (10 = completely odorless, 1 = strong odor)

Row | SMILES | Evaluation of deodorization property
1 | CCCCC(CC)COCC(O)CO (stereo not shown) [Example 2, bio-derived 2-ethylhexyl glyceryl ether B] | ⊚ (when the total score was 60 points or more, the evaluation was ⊚)
2 | CCCCC(CC)COCC(O)CO (stereo not shown) [Example 3, bio-derived 2-ethylhexyl glyceryl ether C] | ⊚ (when the total score was 60 points or more, the evaluation was ⊚)
3 | CCCCC(CC)COCC(O)CO (stereo not shown) [Comparative Example 1, petroleum raw material-derived 2-ethylhexyl glyceryl ether D, reference compound] | ×
4 | CCCCC(CC)COCC(O)CO (stereo not shown) [Example 1, bio-derived 2-ethylhexyl glyceryl ether A] | ⊚ (when the total score was 60 points or more, the evaluation was ⊚)
